{"source": "PubChem BioAssay AID624291", "about": "(National Center for Advancing Translational Sciences (NCATS), 2012)", "note": "Among all 350,000 compounds or so, about 220 (0.063%) were called active. The inconclusive results got no clear call from the source; some entries with a clear call stand among them for comparison. Calls come from the whole dose curve; as a rule, active = well fitted activation curve with a large enough effect; inconclusive = small, poorly fitted or top-dose-only effect; inactive = no such curve, though single readings can be large or run the other way. Where the call is inconclusive, the potency comes from a doubtful curve fit. Potency is the fitted concentration of half-maximal effect."}
{"experiment": "qHTS for Activators of Integrin-Mediated Alleviation for Muscular Dystrophy; note: nearly all actives have a fitted effect of over 60% in size", "settings": "alpha7betagal myoblasts, beta-gal FDG fluorescence, 48 h; series mostly up to 38.3 µM", "in_short": "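alpha7betagal+/- myoblasts (passage 13, 250/well) treated 48 h at 37C with compounds at 1:260 dilution of DMSO stock. Lysed, then beta-galactosidase activity read as FDG fluorescence (ex 480/em 540) after 30 min, with pre-read for autofluorescence.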"}
{"smiles": "O=C(c1cccc2ccccc12)C1CCCN(C(=O)CCCn2cncn2)C1", "note": "(configuration not stated)", "Potency": "inconclusive: 5.01 µM [activator, single point]"}
{"smiles": "O=C(CN1C(=O)NC2(CCCCCC2)C1=O)Nc1ccccc1[N+](=O)[O-]", "Potency": "inconclusive: 12.6 µM [activator, single point]"}
{"smiles": "COc1ccc(N2CC(C(=O)NC3CCSC3=O)CC2=O)cc1", "note": "(configuration not stated)", "Potency": "inconclusive: 2.82 µM [activator, partial curve, poor fit]"}
{"smiles": "NC(=O)CSc1nnc(NC(=O)c2ccc(S(=O)(=O)N3CCCCC3)cc2)s1", "Potency": "inconclusive: 25.1 µM [activator, partial curve, poor fit]"}
{"smiles": "Cc1ccc(SCC(=O)Nc2nnc(C(C)(C)C)s2)cc1", "Potency": "inconclusive: 22.4 µM [activator, single point]"}
{"smiles": "CCC1(c2ccc(Cl)cc2)NC(=O)N(Cc2ccc(C(=O)OC)cc2)C1=O", "note": "(configuration not stated)", "Potency": "inactive"}
{"smiles": "Cc1ccc(S(=O)(=O)N2CCCCC2)cc1NC(=O)c1cccs1", "Potency": "inconclusive: 10 µM [activator, partial curve, poor fit]"}
{"smiles": "CCC(=O)NNC(=S)NC(=O)c1ccc(C)cc1", "Potency": "inconclusive: 28.2 µM [activator, single point]"}
{"smiles": "Cc1nnc(NC(=O)c2ccc(-c3ccc([N+](=O)[O-])cc3)o2)s1", "Potency": "inconclusive: 11.2 µM [activator, partial curve, poor fit]"}
{"smiles": "CS(=O)(=O)N(Cc1ccccc1)c1ccc(C(=O)Nc2ccccc2C(=O)O)cc1", "Potency": "inconclusive: 0.891 µM [activator, single point]"}
{"smiles": "Cc1ccc(NC(=S)c2ccccc2)cc1", "Potency": "inactive"}
{"smiles": "COC(=O)c1ccccc1NC(=S)NC(=O)c1ccc2ccccc2c1", "Potency": "inactive"}
{"smiles": "COc1cc(NC(=O)C2CCCN(S(=O)(=O)c3ccc4[nH]c(=O)ccc4c3)C2)cc(OC)c1", "note": "(configuration not stated)", "Potency": "inconclusive: 2.51 µM [activator, full curve, poor fit]"}
{"smiles": "COC(=O)c1ccccc1NC(=O)N1c2ccccc2CC1C", "note": "(configuration not stated)", "Potency": "inconclusive: 5.62 µM [activator, partial curve, poor fit]"}
{"smiles": "CCOc1ccccc1C(=O)NCC(=O)NCC1CCCCC1", "Potency": "inconclusive: 10 µM [activator, partial curve, poor fit]"}
{"smiles": "CC(=O)/C(N=Nc1nc2c([nH]1)c(=O)n(C)c(=O)n2C)=C(\\C)O", "Potency": "inactive"}
{"smiles": "Cc1nn(CC(=O)N2CCC(C(N)=O)CC2)c(=O)c2nn(-c3ccccc3)c(C)c12", "Potency": "inconclusive: 12.6 µM [activator, single point]"}
{"smiles": "C#CCN(C[C@H]1[C@H](OC(=O)NCc2ccco2)[C@H](OC(=O)NCc2ccco2)C[C@H]2C(=O)N(c3ccccc3)C(=O)[C@@H]12)S(=O)(=O)c1ccc(C)cc1", "Potency": "inactive"}
{"smiles": "CCC(=O)c1ccccc1OCCN1CCN(Cc2ccccc2)CC1", "Potency": "inactive"}
{"smiles": "CCOC(=O)C1CCCN(C(=O)c2csc(-c3ccc4c(c3)CCO4)n2)C1", "note": "(configuration not stated)", "Potency": "inconclusive: 28.2 µM [activator, single point]"}
{"smiles": "COC(=O)c1c(C)noc1-c1snnc1C", "Potency": "inconclusive: 12.6 µM [activator, single point]"}
{"smiles": "Cc1noc(C)c1C(=O)Nc1ccc(F)cc1", "Potency": "inconclusive: 8.91 µM [activator, partial curve, poor fit]"}
{"smiles": "NC(=O)c1nnn(-c2ccccc2)c1N", "Potency": "inconclusive: 1.26 µM [activator, partial curve, poor fit]"}
{"smiles": "COc1cccc(O)c1CN1CCC(C(=O)Nc2ccc(-c3cccc(C)c3)cc2)CC1", "Potency": "inactive"}
{"smiles": "CCOC(=O)c1csc(-c2sccc2Br)n1", "Potency": "inconclusive: 7.08 µM [activator, partial curve]"}
{"smiles": "CCOCCCNC(=O)CCc1ccc(-n2cnc3cccnc32)cc1", "Potency": "inconclusive: 2.51 µM [activator, partial curve, poor fit]"}
{"smiles": "COc1cc(CNC(C)c2ccccc2)cc(Br)c1OCc1ccc(F)cc1", "note": "(configuration not stated)", "Potency": "inactive"}
{"smiles": "O=C(CNC(=S)N(Cc1ccccc1)Cc1cccs1)NCc1ccc(F)cc1", "Potency": "inactive"}
{"smiles": "O=C(NC(Cc1ccccc1)C(=O)N1CCN(S(=O)(=O)c2ccccc2)CC1)c1ccccc1", "note": "(configuration not stated)", "Potency": "inconclusive: 2.82 µM [activator, partial curve, poor fit]"}
{"smiles": "Cc1ccc(OCCNC(=O)CCc2nc3sc4c(c3c(=O)[nH]2)CCCC4)cc1", "Potency": "inconclusive: 5.62 µM [activator, single point]"}
{"smiles": "Cc1ccc(OCCn2c(CCNC(=O)C(C)C)nc3ccccc32)cc1", "Potency": "inactive"}
{"smiles": "CC(C)C(NC(=O)OC(C)(C)C)C(=O)N1CCCC1C(=O)NC(Cc1ccccc1)C(N)=O", "note": "(configuration not stated)", "Potency": "inconclusive: 3.55 µM [activator, single point]"}
{"smiles": "Cc1ccc(-n2nc(C)c(NC(=O)COC(=O)c3ccccc3NCCO)c2C)cc1", "Potency": "inactive"}
{"smiles": "COc1ccc(NC(=S)N2CCC(C(=O)c3ccc(F)cc3)CC2)c(OC)c1", "Potency": "inconclusive: 3.16 µM [activator, single point]"}
{"smiles": "Cc1[nH]n(-c2ccccc2)c(=O)c1C=Nc1ccc(S(N)(=O)=O)cc1", "Potency": "inactive"}
{"smiles": "COc1ccc(/C=C/C(=O)Nc2ccccc2C(N)=O)cc1S(=O)(=O)N1CCOCC1", "Potency": "inactive"}
{"smiles": "Cc1cccc2nc(CSc3nc4ccccc4[nH]3)cn12", "Potency": "inconclusive: 1.12 µM [activator, partial curve, poor fit]"}
{"smiles": "N#CC1(NC(=O)COC(=O)c2ccc(-c3ccc(O)cc3)cc2)CCCCC1", "Potency": "inconclusive: 11.2 µM [activator, single point]"}
{"smiles": "N/C(Cn1cncn1)=N\\NC(=O)C(=O)Nc1ccc(Cl)cc1Cl", "Potency": "inactive"}
{"smiles": "Cc1ccsc1C(=O)N(C)C1CCS(=O)(=O)C1", "note": "(configuration not stated)", "Potency": "inconclusive: 0.891 µM [activator, full curve, poor fit]"}
{"smiles": "COc1ccccc1C(=O)Nc1nc2cc3c(cc2s1)OCO3", "Potency": "inconclusive: 1.78 µM [activator, full curve]"}
{"smiles": "Cc1ccc(NC(CC(=O)c2ccccc2)C(=O)O)cc1Cl", "note": "(configuration not stated)", "Potency": "inactive"}
{"smiles": "COc1ccc(/C=N/NC(=O)C(C)N(c2ccc(OC)cc2)S(C)(=O)=O)cc1", "note": "(configuration not stated)", "Potency": "inconclusive: 8.91 µM [activator, partial curve, poor fit]"}
{"smiles": "CSc1ccc(S(=O)(=O)NCc2ccccc2)cc1", "Potency": "inconclusive: 5.62 µM [activator, partial curve]"}
{"smiles": "O=C(Nc1cccc(C(F)(F)F)c1)C1CCN(S(=O)(=O)c2ccc(N3CCCC3=O)cc2)CC1", "Potency": "inactive"}
{"smiles": "COc1ccc2c(c1OC)c(=O)n1c3ccc(OC(C)C(=O)NCCCN4CCOCC4)cc3c3ccnc2c31", "note": "(configuration not stated)", "Potency": "inactive"}
{"smiles": "COc1cccc(NC(=O)CN(C)C(=O)CNC(=O)c2ccc(Oc3ccccc3)cc2)c1", "Potency": "inactive"}
{"smiles": "Clc1cnc2nc(SC/C=C/c3ccccc3)[nH]c2c1", "Potency": "inconclusive: 3.16 µM [activator, single point]"}
{"smiles": "N/N=C(\\c1ccccc1)C12CN3CN(CN(C3)C1)C2", "Potency": "inactive"}
{"smiles": "CCOc1cc(/C=C(\\C#N)c2nc3ccccc3[nH]2)ccc1OC(C)C(=O)O", "note": "(configuration not stated)", "Potency": "inconclusive: 14.1 µM [activator, single point]"}
{"smiles": "CN(Cc1ccco1)S(=O)(=O)c1cc(F)ccc1CN1C(=O)c2cccnc2C1=O", "Potency": "inconclusive: 6.31 µM [activator, partial curve, poor fit]"}
{"smiles": "COc1ccc(C)cc1NC(=O)CCN1CCN(c2ccccc2F)CC1", "Potency": "inconclusive: 0.501 µM [activator, full curve, poor fit]"}
{"smiles": "CCOc1cc(/C=C2\\SC(=S)N(N3CCOCC3)C2=O)ccc1O", "Potency": "inactive"}
{"smiles": "CC(NC(=O)CCCOc1ccc(Cl)cc1)c1ccccc1", "note": "(configuration not stated)", "Potency": "inconclusive: 5.01 µM [activator, single point]"}
{"smiles": "O=S(=O)(Nc1cc(S(=O)(=O)N2CCOCC2)ccc1O)c1ccc2c(c1)OCCCO2", "Potency": "inconclusive: 12.6 µM [activator, single point]"}
{"smiles": "O=C(O)c1ccc(Cl)cc1NC(=O)C1CCN(S(=O)(=O)c2cccs2)CC1", "Potency": "inactive"}
{"smiles": "Cc1ccc(C)c(N2CCN(S(=O)(=O)c3ccc4[nH]c(=O)c(=O)[nH]c4c3)CC2)c1", "Potency": "inconclusive: 10 µM [activator, partial curve, poor fit]"}
{"smiles": "Cc1ccc(N2CN=C3SCC(=O)N3C2)cc1C", "Potency": "inconclusive: 28.2 µM [activator, single point]"}
{"smiles": "CCCCOc1ccc(N=Cc2cccs2)cc1", "Potency": "inconclusive: 28.2 µM [activator, single point]"}
{"smiles": "CCCCCc1nnc(NC(=O)c2cccc(S(=O)(=O)N3CCOCC3)c2)s1", "Potency": "inconclusive: 31.6 µM [activator, partial curve, poor fit]"}
{"smiles": "Cc1ccc(C)c(NS(=O)(=O)c2ccc(OCC(=O)NCc3ccccn3)cc2)c1", "Potency": "inconclusive: 14.1 µM [activator, partial curve, poor fit]"}
{"smiles": "O=C(C[C@H]1C[C@H](C(=O)N2CCOCC2)[C@@]2(CCC3CCCC3)c3[nH]c4cc(-c5ccco5)ccc4c3CCN2C1=O)NCc1ccco1", "Potency": "inactive"}
{"smiles": "COCCSc1nc2c(c(=O)[nH]c(=O)n2C)n1CCCc1ccccc1", "Potency": "inconclusive: 11.2 µM [activator, single point]"}
{"smiles": "O=C1CCCN1S(=O)(=O)c1ccc(F)cc1", "Potency": "inactive"}
{"smiles": "Cc1cc(C)nc(NS(=O)(=O)c2ccc(NS(=O)(=O)c3ccsc3)cc2)n1", "Potency": "inconclusive: 28.2 µM [activator, single point]"}
{"smiles": "CCCCn1c(SCC(=O)NC(=O)Cc2ccccc2)nc2ccccc2c1=O", "Potency": "inconclusive: 7.08 µM [activator, partial curve, poor fit]"}
{"smiles": "CC(C)C1(C2CCCC2)NC(=O)NC1=O", "note": "(configuration not stated)", "Potency": "inconclusive: 3.55 µM [activator, single point]"}
